Assay results taken from paper doi:10.1101/2023.04.26.538363 (bioRxiv, 2023).
Where a chain is given by its changes, count along the chain named. Numbers in names are those of the source. No constants are given. Whether binding was seen depends on the method and setting. Some results given as binding are weak or reduced against the parent protein; the word gives no strength.

Sequences of proteins named here, by UniProt entry; tags and fusion partners are left off. A change or cut given only in a name is not applied to a line headed by its entry.
UniProt P08659, whole entry: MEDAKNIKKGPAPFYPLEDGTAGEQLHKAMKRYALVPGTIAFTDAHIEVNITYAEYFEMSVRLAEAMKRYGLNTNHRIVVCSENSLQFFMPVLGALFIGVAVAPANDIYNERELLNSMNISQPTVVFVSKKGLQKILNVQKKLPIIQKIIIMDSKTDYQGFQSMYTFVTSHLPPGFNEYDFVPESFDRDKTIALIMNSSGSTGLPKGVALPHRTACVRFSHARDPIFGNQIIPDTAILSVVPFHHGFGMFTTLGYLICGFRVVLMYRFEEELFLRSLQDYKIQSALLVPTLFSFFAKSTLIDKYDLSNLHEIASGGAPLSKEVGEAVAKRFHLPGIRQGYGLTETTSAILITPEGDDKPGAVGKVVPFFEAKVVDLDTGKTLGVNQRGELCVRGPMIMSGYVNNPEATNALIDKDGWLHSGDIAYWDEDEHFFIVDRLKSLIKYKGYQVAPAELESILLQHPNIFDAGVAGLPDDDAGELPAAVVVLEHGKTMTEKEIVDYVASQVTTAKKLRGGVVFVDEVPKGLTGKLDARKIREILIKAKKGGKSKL

Tests used:
Assay in all cases: sucrose density gradient centrifugation
[1] = biological target: firefly luciferase, heat-denatured (firefly) [luciferase: P08659]
[2] = biological target: Cedecea neteri IbpA R93A mutant (Cedecea neteri)
[3] = biological target: Cedecea neteri IbpA, wild type (Cedecea neteri)

Question: With “Cedecea neteri IbpA R93A mutant (from UniProt A0A089Q2Q3 1-137)” as the molecule, how does the binding [1] read?
Answer: binds

Question: And the binding [2]?
Answer: binds

Question: For “Cedecea neteri IbpA, wild type (from UniProt A0A089Q2Q3 1-137)”, which binding [3] is on record?
Answer: binds

Question: What about the binding [1] of the same molecule?
Answer: binds

B1: Escherichia coli inclusion body-associated protein A, wild type (natural protein)
chain: MRNFDLSPLYRSAIGFDRLFNHLENNQSQSNGGYPPYNVELVDENHYRIAIAVAGFAESELEITAQDNLLVVKGAHADEQKERTYLYQGIAERNFERKFQLAENIHVRGANLVNGLLYIDLERVIPEAKKPRRIEIN
Question: B1 was tested. Which binding [1] did it give?
Answer: binds

B2: Escherichia coli IbpA R93A mutant (natural protein)
chain: B1 chain with R93A
Question: How did the binding [1] turn out when B2 was run?
Answer: binds
